Patent US6716829B2, “Aldosterone antagonist and cyclooxygenase-2 inhibitor combination therapy to prevent or treat inflammation-related cardiovascular disorders” (Pharmacia Corporation, priority 2000, dated 2004)

Assay: Assay C: body weight, left and right ventricle weight, tibia length (myocardial hypertrophy)
Assay type: in vivo, Male Sprague-Dawley rats
Settings: for Tibia Length (cm): mean ± SEM after 30 days of treatment, eplerenone dose 100 mg/kg/day
Method: The procedure of Assay B was expanded upon in a further study. […] Myocardial tissue from animals in each treatment group was examined after 7, 14, or 30 days of treatment.
Male Sprague-Dawley rats, weighing 230 to 250 g, (Harlan Sprague-Dawley Industries, Indianapolis, IN) were housed in a room 12-hours light/12-hours dark daily cycle at an ambient temperature of 22±1° C. (n=96). Animals were allowed one week to adjust after arrival and had free access to TEKLAD 22/5 rodent diet (Harlan TEKLAD, Madison, Wis.) and tap water until the initiation of the experiment.
Potassium chloride supplementation was added to the saline solution in order to prevent the potential hypokalemia associated with aldosterone excess.
At the time of the surgery, an Alzet 2002 osmotic minipump (Alza Corp., Palo Alto, Calif.) containing either vehicle (9% ethanol/87% propylene glycol/4% dH2O) or 1.0 mg/mL d-aldosterone (Sigma Chemical, St. Louis, Mo.) was inserted subcutaneously at the nape of the neck. Aldosterone was administered at a dose of 0.75 µg/hour. […] Animals were sacrificed from each group (n=8-13) after 7, 14, or 30 days of treatment.
Animals to be sacrificed after 7 or 14 days of treatment were uninephrectomized and implanted with an Alzet minipump. Animals treated for 30 days were uninephrectomized, fitted for Alzet minipumps, and implanted with radio telemetry units (model #TA11PA-C40, Data Sciences Inc., St. Paul, Minn.) according to the following procedure. Animals were anesthetized with 5% isoflurane (SOLVAY Animal Health Inc., Mendota Heights, Minn.), which was delivered in O2 using a VMS anesthesia instrument (Matrix Medical, Inc., Orchard Park, N.Y.). Anesthesia was maintained with 1-2% isoflurane throughout the surgical procedure. The surgery site was clipped, scrubbed with nolvasan, and sprayed with betadine. A rostral-caudal incision was made through the skin from the base of the rib cage to the pubic region using a #11 scalpel blade. A second incision was made through the muscles of the abdominal wall to expose the peritoneal cavity. The […], renal artery and vein of the left kidney were isolated, tied off with 4-0 silk, and the kidney excised and discarded. Organs were carefully displaced with tissue retractors in order to expose the abdominal aorta. A 1.5 cm segment just rostral to the bifurcation of the abdominal aorta into the iliac arteries was cleared of excessive connective tissue and 4-0 silk was used to make an anchor adjacent to the aorta. A microvascular clip was then placed at both ends of the cleaned region to stop excessive blood flow. Using a bent, 21 gauge needle, the abdominal aorta was penetrated. The cannula of the radio telemetry unit was inserted and stabilized in the aorta using the 4-0 silk anchor. Organs were repositioned and the telemetry unit was placed over the organs. Using a non-interrupted suture pattern with 4-0 silk, the abdominal wall was closed, and the skin was subsequently closed using a 4-0 silk in an interrupted suture pattern. Animals were injected around the sutures with 100 μL of the anesthetic Marcaine HCl (Sanofi Winthrop Pharmaceuticals, New York, N.Y.) and given an injection (i.m.) of the antibiotic Mandol (Eli Lilly & Co., Indianapolis, Ind.). Post-operative care included monitoring the animals on a heating pad during recovery from anesthesia until sternal recumbency was reestablished. Animals were monitored daily for signs of distress and infection at the surgical site. Animals displaying continued discomfort after surgery were treated with 0.1-0.5 mg/kg, s.c. Buphrenorphine (Rickett & Colman Pharmaceuticals, Inc. Richmond, Va.). Animals were then placed on tap water and TEKLAD 22/5 rodent diet (Harlan TEKLAD, Madison, Wis.).

[1] = 14-day protocol, individual rats and group Mean, listed as Aldosterone + salt
[2] = 30-day protocol, individual rats and group Mean, listed as Aldosterone + salt
[3] = individual rats and group mean, 7 days of treatment, aldosterone + salt, eplerenone 100 mg/kg/day
[4] = mean ± SEM after 7 days of treatment, aldosterone + salt, eplerenone 100 mg/kg/day
[5] = mean ± SEM after 14 days of treatment, aldosterone + salt, eplerenone 100 mg/kg/day
[6] = 14-day protocol, individual rats and group Mean, listed as Eplerenone + aldosterone + salt
[7] = 30-day protocol, individual rats and group Mean, listed as Eplerenone + aldosterone + salt

| SMILES | Final Body Weight [1] | Tibia Length [1] | Final Body Weight [2] | Tibia Length [2] | Tibia Length [3] | Tibia Length [4] [cm] | Tibia Length [5] [cm] | Tibia Length (cm) | Final Body Weight [6] | Tibia Length [6] | Final Body Weight [7] | Tibia Length [7] |
| --- | --- | --- | --- | --- | --- | --- | --- | --- | --- | --- | --- | --- |
| C[C@]12CCC(=O)C=C1CC[C@@H]1[C@@H]2[C@@H](O)C[C@]2(C=O)[C@@H](C(=O)CO)CC[C@@H]12 [Aldosterone] | 298 g and 261 g and 307 g (2×) and 242 g and 279 g and 308 g and 290 g and 264 g and 275 g and 193 g and 215 g and 270 g and 235 g | 3.8 cm (6×) and 3.9 cm (5×) and 3.80 cm and 3.7 cm and 3.6 cm | 289 g (2×) and 219 g and 282 g and 290 g and 267 g and 319 g and 263 g and 234 g and 272 g | 4.0 cm (2×) and 3.8 cm (2×) and 3.9 cm (6×) | 3.8 cm (5×) and 3.6 cm and 3.9 cm (3×) and 3.7 cm | 3.8 ± 0.03 | 3.8 ± 0.02 | 3.9 ± 0.02 | – | – | – | – |
| COC(=O)[C@@H]1CC2=CC(=O)CC[C@]2(C)[C@@]23O[C@@H]2C[C@@]2(C)[C@@H](CC[C@@]24CCC(=O)O4)[C@H]13 [Eplerenone] | – | – | – | – | 3.9 cm and 3.8 cm (9×) and 3.7 cm | 3.8 ± 0.01 | 3.8 ± 0.02 | 3.9 ± 0.00 | 268 g and 267 g and 247 g and 291 g and 264 g and 302 g | 3.8 cm (8×) and 3.9 cm (2×) and 3.7 cm (2×) | 310 g and 343 g and 334 g and 299 g and 361 g and 351 g and 316 g and 352 g and 317 g and 331 g | 3.9 cm (9×) and 4.1 cm and 4.0 cm |

Several values for one entry are separate records, joined by “and”; a condition that tells them apart may be missing. Identical values can stand only once.
